Source: the supplement of paper PMC3334620
In all, about 33,000 sequences were measured (“E-score (-0.5 to 0.5)”: median about -0.015, highest 2% from about 0.3 on). The list shows a part of the results.

Molecular target: T1, Abf1 (UniProt P14164)
T1 sequence: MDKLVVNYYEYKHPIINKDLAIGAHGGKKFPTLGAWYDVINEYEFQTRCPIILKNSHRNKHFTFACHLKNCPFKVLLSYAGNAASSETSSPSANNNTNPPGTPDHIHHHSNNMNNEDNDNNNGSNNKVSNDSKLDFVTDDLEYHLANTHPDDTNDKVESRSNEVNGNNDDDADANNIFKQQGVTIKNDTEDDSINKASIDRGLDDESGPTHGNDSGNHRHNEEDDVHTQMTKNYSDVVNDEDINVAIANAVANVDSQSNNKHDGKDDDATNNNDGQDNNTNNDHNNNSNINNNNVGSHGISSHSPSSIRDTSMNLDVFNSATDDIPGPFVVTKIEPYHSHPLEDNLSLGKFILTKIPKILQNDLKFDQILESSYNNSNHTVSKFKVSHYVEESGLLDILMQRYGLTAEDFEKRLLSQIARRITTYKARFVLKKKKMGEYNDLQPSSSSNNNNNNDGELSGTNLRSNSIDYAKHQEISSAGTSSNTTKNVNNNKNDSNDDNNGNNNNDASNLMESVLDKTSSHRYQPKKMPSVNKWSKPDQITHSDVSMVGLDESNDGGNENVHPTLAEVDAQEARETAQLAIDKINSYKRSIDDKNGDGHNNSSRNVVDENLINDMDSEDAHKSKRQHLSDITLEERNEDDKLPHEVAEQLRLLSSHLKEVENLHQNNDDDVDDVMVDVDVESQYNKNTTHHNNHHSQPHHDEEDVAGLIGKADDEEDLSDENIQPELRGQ
Test: PBM E-score (8-mer binding enrichment) (E-score (-0.5 to 0.5)); higher = stronger / more preferred TF binding
Details: protein concentration: 200 nM; construct: GST-full length
Procedure: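 Universal 'all 10-mer' protein binding microarrays (Agilent AMADID 015681) probed with GST-tagged S. cerevisiae TFs (full-length or DBD) made by in vitro transcription/translation (PURExpress), about 100-200 nM. Bound TF was detected with fluorescent anti-GST. Each ungapped 8-mer (which stands for itself and its reverse complement) is scored by the PBM enrichment score (E-score), a modified Wilcoxon-Mann-Whitney statistic from -0.5 to +0.5, computed with the Universal PBM Analysis Suite. Scale: above 0.35 generally sequence-specific binding.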

Sequence | PBM E-score
CTTTTTCC | -0.034
CCCAAACA | -0.0787
CGCGATTA | 0.0309
AATATCGC | 0.283
ATTGATCA | 0.267
AGTGACCC | 0.11
GATTTCGC | 0.183
CCACGCGC | -0.206
GCGTGTAC | 0.159
CCGTTGTA | 0.173
GAGTTTCA | -0.0136
CTCTAAAA | -0.0732
CAAGTTAG | -0.0432
AGTACGTC | 0.125
AATACTTG | 0.168
ATAGATCG | 0.103
CACGCAGC | 0.00826
AGGTCAGC | -0.0373
CGCCTAAA | -0.0389
TATATCAA | 0.145
CCCATGCG | -0.239
AAGATTTA | 0.0898
GCAGCTAC | 0.0574
CGTTCTAA | 0.0735
AAGATGGG | -0.112

Sequence | PBM E-score
GGCTCCCA | -0.285
ATGGAGGG | -0.259
ATTGCCGC | 0.0308
CAACCACC | -0.0676
TCACCCAA | 0.14
GCCGTCGA | 0.176
ACCTGAAC | -0.323
GCTGATCC | -0.0141
AGTCCATG | -0.105
CGGTACAA | 0.211
AGAATAAC | -0.181
AAAATATC | 0.177
AGAAGCCT | 0.0484
AGGCTGGC | -0.215
CGGCCCGC | -0.121
CGGTAGAG | -0.0305
AGGCCTTG | -0.302
AAACAACG | 0.0689
GTGGATAA | 0.171
GAGGTCGA | -0.00154
CTAGCACC | -0.111
ACCTTCCC | -0.057
AGTTAAGA | 0.0808
CGCTGACC | -0.0675
AAGTTCAG | 0.0476

Sequence | PBM E-score
AAACGCAG | -0.117
AGCACTTG | -0.314
GACTGGTA | -0.1
ACGTTGGC | -0.00455
CGTATTGC | 0.106
GGCGACCC | -0.247
GACCATAC | -0.102
CGGGAATA | 0.141
AGCAGAAC | -0.0123
CTTGGACC | -0.191
GGGGTTAC | -0.261
ACTAGAGA | -0.107
CCGGTCTC | -0.28
AGCATGCG | -0.057
CGGGCGAC | -0.269
AGTCGTGA | 0.249
CTATGTGC | -0.0958
GGGGGTTA | -0.338
CGCCGTCC | 0.308
CCGGGATA | 0.0683
GTACCGGA | 0.0951
AGTACTCA | -0.0128
ACAATCCC | 0.00121
AAGTTGGT | 0.0992
CTACTATA | 0.0875

Sequence | PBM E-score
ACAAGGAA | 0.0968
GCGCGCAA | -0.0428
CAAGTGTA | -0.238
GAGGACAA | -0.0425
TACAACGA | 0.0333
CAATTTGA | 0.0493
CGGAGGTC | 0.133
CCCCGCGA | -0.0954
CCCTGACA | -0.0934
ATAGCCCA | 0.0251
ACTTCGCT | 0.0386
CATAGTTA | -0.037
ACACGCTG | -0.022
CGAAACCC | -0.00384
ATAAGCTC | 0.0741
AATCTATG | 0.135
CCAGCTGC | -0.335
GATTTGAC | 0.0926
CTGTCGGC | -0.0834
AGCGTGGC | -0.0457
TATGGTGA | 0.132
CGATCCCG | -0.137
GAGGGGCC | -0.265
CTCCGCCA | -0.0449
ACTTGCCC | -0.22

Sequence | PBM E-score
AATATACT | 0.0129
CCTTACAA | -0.189
AGTAGTAG | -0.139
CAAACTAA | 0.148
AAGGATTC | -0.0468
GGGACCAA | -0.215
GCTCAGCC | -0.171
ATTTGTCG | 0.188
ACTATGAC | 0.103
AGGGATGC | -0.137
ACGAACTG | 0.164
AAATTACG | 0.0659
ACGTAAGT | 0.0702
AAGCCTTG | -0.084
GACTATGC | 0.00943
GCCTGGCC | -0.0354
ATACGATA | 0.282
CCGGAGCC | -0.153
ACCTTGAA | -0.0814
CCTATCCA | -0.215
TACACGAA | 0.337
ATCCGTTG | 0.1
GACCACCC | -0.0784
TCACATCA | 0.224
CCTCATGA | 0.143

Sequence | PBM E-score
ACCTAGTC | 0.0259
AGGGCTAT | -0.17
ATGGATGA | 0.121
CAAGAGGG | -0.207
TACGGGAA | 0.0394
AGGAGTTA | 0.0874
CGGGAGAA | -0.219
AACGTATG | 0.148
ACCACCCG | -0.0365
CAATTTCG | -0.0365
ACTAATCA | 0.138
ACACCGAG | -0.251
CCTGGAAG | -0.107
CTGCCGAA | -0.148
AATGGAAG | 0.0424
ACTGGCGA | -0.106
ACGACATC | 0.303
CACTACCC | -0.0124
CCCGGAAA | -0.125
ACTAGCGC | 0.0223
AAAGAGAG | -0.214
CAGGATCG | -0.0178
CAGCCCGG | -0.185
GCGCGTAC | 0.0985
CATAAGGA | -0.101

A second format for some results above.

| Sequence | PBM E-score |
| --- | --- |
| CAACCACC | -0.0676 |
| TCACCCAA | 0.14 |
| GCCGTCGA | 0.176 |
| ACCTGAAC | -0.323 |
| GCTGATCC | -0.0141 |
| AGTCCATG | -0.105 |
| CGGTACAA | 0.211 |

Going on with the list:

Sequence | PBM E-score
AGTCATCC | 0.188
ATCGCTCC | 0.0885
TCAAGAGA | 0.0894
CTCCGACA | -0.181
ACTCTTGG | -0.0601
CCCATCGG | -0.0692
AGGCTCTA | -0.247
ATTATCAA | 0.193
CCGCAACG | 0.117
AACTGATC | -0.0192
CCATCCAC | 0.0433
TCATATCA | 0.315
GTTGGATA | 0.137
ATAGGGTG | -0.137
ATAGAGGA | -0.0861
ATGTAGCG | -0.163
AGGCAGTG | -0.157
ACCTCTCG | -0.178
GAGATAAA | 0.157
ACCTCAGA | -0.165
AATGGATC | 0.113
ACCGGCCA | -0.177
